Results are given in words; binding and its absence hold for the method and conditions named. Some results given as binding are weak or reduced against the parent protein; the word gives no strength.
Target: T1, chicken leptin (chicken, UniProt O42164 19-163, limits assumed)
T1 sequence (looked up): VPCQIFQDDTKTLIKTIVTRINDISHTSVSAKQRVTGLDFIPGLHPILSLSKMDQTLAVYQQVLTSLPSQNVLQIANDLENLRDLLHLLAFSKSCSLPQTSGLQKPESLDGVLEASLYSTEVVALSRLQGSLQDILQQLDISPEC
Experiment: gel filtration and binding assays

B1: recombinant chicken leptin receptor binding domain (chLBD), amino acids 419-624 of the chicken leptin receptor (receptor)
chain: MAVDVNINIKCETDGYLTKMTCRWSANPNALLLGSSLQLRYHRSKIYCSNFPSTPPESEVKECHFQRNHSYECTFQPVFLLSGYTMWIELKHSLGTLESSPTCVVPADVVKPLPPSNIKAEITRNDGLLNVSWTNPVFTNDDLKFQIRYAVNREELTWELYEVLSVPTRSAVIEVQLCVEYIVQIRCRALDGLGYWSNWSRSAYAAVKD
notes: also called CLBD
  binding: binds

— patent US20050209137A1 (published 2005)
